This is one part of the list.
What was measured:
Test in all cases: log2 fold change, soluble protein after heating vs DMSO (PISA); higher = thermal stabilisation; K562 lysate, 10 uM; active = over 0.2 and 3.5 SD of the protein, either way, in both replicates (recomputed)
[1] = compound: C/C(=N\NC(=O)C1=CC(=CC=C1)S(=O)(=O)N2CCOCC2)/C3=C(C=CC(=C3)Cl)O
How it was run: (§1)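 K562 pellets were dounce-homogenised in PBS pH 7.4 with 1 mM MgCl2, and the crude extract at 1 mg/mL protein was treated with 10 μM compound for 30 min. Aliquots were heated for 3 min across 48°C-58°C, pooled, and brought to 0.5% NP-40 at 4°C; soluble protein was the supernatant after 21,000xg for 90 min. Soluble protein was quantified by TMTpro 16plex LC-MS/MS with channel sums equalised, and reported as log2 fold change in thermal stability against DMSO controls, with values from duplicates.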

By UniProt entry, the sequences of proteins in these tests, tags left out. Where a name states a change or a piece, a line headed by the entry shows the natural chain unless it says otherwise.
UniProt Q8NE00: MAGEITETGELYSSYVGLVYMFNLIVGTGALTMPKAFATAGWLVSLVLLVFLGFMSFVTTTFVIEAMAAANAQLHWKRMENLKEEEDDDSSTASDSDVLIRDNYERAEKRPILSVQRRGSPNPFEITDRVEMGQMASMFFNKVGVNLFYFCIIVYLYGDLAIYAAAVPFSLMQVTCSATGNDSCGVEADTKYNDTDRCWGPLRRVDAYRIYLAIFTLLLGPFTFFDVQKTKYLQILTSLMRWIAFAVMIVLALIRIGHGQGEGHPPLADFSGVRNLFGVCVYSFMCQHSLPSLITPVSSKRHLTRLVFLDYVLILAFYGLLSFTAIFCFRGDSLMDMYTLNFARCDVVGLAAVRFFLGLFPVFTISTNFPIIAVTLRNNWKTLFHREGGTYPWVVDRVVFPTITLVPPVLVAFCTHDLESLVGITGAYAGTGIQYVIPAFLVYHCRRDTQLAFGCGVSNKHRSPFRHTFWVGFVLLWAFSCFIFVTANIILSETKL
UniProt O76062: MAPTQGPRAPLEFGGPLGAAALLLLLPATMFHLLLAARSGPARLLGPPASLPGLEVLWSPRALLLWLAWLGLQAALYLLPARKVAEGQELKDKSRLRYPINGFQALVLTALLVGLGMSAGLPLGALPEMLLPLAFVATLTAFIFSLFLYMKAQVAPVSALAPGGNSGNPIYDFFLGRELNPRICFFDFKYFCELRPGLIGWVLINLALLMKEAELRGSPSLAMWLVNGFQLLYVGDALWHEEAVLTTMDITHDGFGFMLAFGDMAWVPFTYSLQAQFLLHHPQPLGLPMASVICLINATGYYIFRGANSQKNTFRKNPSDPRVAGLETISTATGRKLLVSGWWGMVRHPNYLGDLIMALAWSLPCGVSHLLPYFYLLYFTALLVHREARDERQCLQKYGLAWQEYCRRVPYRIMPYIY
UniProt Q9NVA4: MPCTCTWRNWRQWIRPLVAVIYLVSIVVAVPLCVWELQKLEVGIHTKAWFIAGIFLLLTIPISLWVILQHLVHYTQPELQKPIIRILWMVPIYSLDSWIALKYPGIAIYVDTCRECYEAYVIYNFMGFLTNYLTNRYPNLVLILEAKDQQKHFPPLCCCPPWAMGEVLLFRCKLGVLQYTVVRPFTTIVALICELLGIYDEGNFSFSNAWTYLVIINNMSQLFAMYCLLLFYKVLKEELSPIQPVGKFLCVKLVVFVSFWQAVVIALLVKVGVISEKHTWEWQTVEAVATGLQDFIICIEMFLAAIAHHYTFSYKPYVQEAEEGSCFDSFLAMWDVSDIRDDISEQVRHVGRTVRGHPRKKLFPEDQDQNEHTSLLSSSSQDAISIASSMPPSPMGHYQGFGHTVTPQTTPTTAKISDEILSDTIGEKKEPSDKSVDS
UniProt Q8N9M5: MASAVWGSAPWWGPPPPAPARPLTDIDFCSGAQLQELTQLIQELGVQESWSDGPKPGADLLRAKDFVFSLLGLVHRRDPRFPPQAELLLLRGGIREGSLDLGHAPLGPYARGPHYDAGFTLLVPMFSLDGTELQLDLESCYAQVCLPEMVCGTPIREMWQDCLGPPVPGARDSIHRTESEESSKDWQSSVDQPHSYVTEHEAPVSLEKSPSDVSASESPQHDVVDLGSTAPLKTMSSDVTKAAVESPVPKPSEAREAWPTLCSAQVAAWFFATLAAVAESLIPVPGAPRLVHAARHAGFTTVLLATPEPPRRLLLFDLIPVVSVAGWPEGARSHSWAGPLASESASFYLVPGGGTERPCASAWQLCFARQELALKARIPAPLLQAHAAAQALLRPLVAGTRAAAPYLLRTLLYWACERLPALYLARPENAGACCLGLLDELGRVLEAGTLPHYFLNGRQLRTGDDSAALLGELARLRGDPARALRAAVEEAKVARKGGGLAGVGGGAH
UniProt Q8WTV1: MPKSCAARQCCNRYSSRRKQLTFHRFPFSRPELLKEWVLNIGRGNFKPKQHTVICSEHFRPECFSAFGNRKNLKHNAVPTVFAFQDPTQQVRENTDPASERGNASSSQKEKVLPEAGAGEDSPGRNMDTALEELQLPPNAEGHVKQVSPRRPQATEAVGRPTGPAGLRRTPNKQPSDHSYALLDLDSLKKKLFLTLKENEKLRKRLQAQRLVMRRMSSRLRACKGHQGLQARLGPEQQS
UniProt Q1AE95: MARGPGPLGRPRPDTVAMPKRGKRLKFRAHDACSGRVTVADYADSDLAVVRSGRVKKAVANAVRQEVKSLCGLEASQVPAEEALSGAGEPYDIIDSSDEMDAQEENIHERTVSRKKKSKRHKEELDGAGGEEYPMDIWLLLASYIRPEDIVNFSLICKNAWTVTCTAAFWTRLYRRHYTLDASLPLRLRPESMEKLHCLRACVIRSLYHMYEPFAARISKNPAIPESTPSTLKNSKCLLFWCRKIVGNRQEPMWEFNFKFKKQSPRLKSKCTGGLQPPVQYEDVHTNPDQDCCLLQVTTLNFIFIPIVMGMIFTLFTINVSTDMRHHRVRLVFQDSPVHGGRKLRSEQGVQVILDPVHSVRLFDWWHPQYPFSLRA
UniProt Q96IK0: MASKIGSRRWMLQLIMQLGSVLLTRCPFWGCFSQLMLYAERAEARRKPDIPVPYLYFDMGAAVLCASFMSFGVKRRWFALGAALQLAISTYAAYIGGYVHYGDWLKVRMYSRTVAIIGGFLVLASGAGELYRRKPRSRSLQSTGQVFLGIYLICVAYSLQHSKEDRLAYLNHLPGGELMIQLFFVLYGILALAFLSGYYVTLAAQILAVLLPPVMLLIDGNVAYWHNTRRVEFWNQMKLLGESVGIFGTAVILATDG
UniProt Q9BSA9: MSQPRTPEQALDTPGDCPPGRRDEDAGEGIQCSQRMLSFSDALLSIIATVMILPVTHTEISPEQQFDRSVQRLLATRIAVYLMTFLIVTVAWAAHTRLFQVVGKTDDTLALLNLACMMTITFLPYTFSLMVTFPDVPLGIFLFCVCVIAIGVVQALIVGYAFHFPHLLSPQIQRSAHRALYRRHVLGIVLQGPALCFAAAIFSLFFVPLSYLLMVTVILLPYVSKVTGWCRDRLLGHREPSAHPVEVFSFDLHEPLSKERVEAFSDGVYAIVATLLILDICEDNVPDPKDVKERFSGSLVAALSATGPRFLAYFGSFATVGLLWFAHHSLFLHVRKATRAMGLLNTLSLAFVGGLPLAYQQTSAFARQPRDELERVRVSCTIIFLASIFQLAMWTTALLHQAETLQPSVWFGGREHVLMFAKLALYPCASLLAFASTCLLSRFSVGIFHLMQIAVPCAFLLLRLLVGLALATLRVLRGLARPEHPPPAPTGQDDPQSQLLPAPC
UniProt Q9BVX2: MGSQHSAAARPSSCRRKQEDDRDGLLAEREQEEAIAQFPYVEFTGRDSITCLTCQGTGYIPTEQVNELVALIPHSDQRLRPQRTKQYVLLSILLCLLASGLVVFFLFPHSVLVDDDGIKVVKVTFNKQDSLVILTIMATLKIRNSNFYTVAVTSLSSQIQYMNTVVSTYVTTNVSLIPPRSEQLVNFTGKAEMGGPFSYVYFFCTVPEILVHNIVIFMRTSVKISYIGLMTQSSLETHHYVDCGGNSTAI
UniProt Q96B96: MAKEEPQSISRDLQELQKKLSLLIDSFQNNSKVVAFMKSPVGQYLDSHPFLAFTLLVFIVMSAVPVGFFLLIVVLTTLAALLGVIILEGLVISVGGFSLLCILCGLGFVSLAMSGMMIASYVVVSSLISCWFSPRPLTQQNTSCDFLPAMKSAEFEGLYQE
UniProt Q9BRN9: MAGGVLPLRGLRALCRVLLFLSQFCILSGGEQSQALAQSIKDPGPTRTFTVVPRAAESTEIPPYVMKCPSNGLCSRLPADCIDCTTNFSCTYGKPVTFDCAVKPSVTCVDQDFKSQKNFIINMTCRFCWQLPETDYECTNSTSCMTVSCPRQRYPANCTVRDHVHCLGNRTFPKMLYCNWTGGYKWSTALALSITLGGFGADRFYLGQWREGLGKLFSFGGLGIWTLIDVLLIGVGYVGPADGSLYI
UniProt P51854: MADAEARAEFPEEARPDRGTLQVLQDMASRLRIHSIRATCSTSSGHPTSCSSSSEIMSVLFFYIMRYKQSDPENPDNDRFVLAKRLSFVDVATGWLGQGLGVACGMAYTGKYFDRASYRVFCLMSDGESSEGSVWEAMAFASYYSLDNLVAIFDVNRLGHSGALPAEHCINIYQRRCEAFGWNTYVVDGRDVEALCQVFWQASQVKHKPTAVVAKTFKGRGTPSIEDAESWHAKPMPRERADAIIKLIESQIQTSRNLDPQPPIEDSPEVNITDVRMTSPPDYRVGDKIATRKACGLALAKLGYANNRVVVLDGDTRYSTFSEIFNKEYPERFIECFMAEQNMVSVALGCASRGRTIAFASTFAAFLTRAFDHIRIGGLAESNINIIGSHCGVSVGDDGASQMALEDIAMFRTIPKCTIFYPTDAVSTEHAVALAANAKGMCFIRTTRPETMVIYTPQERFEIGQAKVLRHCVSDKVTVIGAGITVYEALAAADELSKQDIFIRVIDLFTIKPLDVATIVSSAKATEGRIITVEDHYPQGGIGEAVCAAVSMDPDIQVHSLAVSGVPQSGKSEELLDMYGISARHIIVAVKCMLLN
UniProt O94876, whole entry, looked up: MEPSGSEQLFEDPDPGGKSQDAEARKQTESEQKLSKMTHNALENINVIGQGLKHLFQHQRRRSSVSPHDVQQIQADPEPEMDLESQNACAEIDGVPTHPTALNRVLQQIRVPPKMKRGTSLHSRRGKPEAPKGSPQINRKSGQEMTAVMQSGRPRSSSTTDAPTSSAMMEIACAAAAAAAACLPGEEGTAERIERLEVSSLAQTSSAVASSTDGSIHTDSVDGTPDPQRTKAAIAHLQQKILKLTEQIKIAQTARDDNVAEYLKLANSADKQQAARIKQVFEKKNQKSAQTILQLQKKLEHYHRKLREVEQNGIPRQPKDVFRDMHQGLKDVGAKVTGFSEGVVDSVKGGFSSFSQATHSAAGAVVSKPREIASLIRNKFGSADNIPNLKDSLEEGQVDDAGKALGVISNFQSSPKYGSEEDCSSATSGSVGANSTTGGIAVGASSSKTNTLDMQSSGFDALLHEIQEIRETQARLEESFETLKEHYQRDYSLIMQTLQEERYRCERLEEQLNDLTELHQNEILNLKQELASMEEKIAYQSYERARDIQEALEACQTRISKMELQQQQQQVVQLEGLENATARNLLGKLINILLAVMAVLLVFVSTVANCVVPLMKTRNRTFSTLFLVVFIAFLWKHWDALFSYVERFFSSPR
UniProt Q96AN5: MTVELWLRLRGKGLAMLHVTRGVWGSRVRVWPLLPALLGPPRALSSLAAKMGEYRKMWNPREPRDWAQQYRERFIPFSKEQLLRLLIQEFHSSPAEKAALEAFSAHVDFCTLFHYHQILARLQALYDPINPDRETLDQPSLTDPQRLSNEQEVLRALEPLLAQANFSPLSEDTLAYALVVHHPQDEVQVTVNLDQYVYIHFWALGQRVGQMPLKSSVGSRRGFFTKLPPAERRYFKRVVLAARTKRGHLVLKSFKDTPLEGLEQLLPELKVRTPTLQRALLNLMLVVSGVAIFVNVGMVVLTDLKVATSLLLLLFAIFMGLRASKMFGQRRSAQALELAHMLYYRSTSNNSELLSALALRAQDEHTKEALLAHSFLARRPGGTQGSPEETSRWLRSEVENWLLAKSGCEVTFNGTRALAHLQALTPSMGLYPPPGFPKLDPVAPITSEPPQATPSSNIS
UniProt Q9H6X4: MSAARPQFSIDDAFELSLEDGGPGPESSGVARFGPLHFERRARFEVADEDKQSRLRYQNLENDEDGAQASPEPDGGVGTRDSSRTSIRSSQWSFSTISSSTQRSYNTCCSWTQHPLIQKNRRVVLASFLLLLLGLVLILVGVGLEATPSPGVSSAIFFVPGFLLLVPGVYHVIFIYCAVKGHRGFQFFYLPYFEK
UniProt Q9Y3Q3: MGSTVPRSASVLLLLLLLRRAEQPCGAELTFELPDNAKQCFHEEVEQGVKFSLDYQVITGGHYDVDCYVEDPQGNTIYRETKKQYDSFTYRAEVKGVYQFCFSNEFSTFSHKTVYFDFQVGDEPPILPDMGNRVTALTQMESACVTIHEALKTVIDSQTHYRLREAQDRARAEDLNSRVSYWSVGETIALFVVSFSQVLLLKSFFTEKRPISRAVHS
UniProt Q15583: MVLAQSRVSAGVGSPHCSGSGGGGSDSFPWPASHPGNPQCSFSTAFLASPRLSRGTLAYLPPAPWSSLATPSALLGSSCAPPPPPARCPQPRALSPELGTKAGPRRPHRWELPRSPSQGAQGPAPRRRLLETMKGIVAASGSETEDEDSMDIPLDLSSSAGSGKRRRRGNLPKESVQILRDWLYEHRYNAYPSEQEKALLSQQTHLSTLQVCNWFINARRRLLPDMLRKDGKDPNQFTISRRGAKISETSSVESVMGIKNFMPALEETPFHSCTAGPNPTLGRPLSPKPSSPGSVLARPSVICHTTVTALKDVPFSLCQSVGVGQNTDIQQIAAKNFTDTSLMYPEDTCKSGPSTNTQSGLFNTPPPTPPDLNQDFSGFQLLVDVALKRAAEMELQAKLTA
UniProt Q96CG3: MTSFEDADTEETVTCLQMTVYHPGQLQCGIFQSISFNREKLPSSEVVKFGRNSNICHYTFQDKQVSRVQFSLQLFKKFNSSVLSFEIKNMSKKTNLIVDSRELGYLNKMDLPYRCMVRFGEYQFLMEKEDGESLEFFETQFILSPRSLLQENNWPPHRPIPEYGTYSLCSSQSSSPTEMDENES

[2] = compound: C1=CC2=C(C=CC(=C2)/C=C\3/C(=O)NC(=NCC4=CC=CS4)S3)N=C1
How it was run: as §1

[3] = compound: C1=CC2=NC=CN=C2C=C1/C=C/3\C(=O)NC(=O)S3
How it was run: as §1

[4] = compound: C1=CC=C2C(=C1)C3=NNC4=CC=CC(=C43)C2=O
How it was run: as §1

ibrutinib = compound: C=CC(=O)N1CCC[C@@H](n2nc(-c3ccc(Oc4ccccc4)cc3)c3c(N)ncnc32)C1 [ibrutinib]
How it was run: as §1

[5] = compound: CC1=C(C=C(C=C1)NC(=O)C2=CC(=CC=C2)C(C)(C)C#N)NC3=CC4=C(C=C3)N=CN(C4=O)C
How it was run: as §1

erlotinib = compound: C#Cc1cccc(Nc2ncnc3cc(OCCOC)c(OCCOC)cc23)c1 [erlotinib]
How it was run: as §1

[6] = compound: C1=CC(=CC=C1C2=NC3=C(N2)C=C(C=C3)C(=O)N)OC4=CC=C(C=C4)Cl
How it was run: as §1

[7] = compound: C1=CC=C(C=C1)C2=NC(=C(N2)C3=CC=NC=C3)C4=CC(=C(C=C4)Cl)O
How it was run: as §1

[8] = compound: C1CCN(C1)C(=O)NC2=CC=CC(=C2)NC3=NC=C(C(=N3)NCCC4=CN=CN4)Br
How it was run: as §1

[9] = compound: C1CN(CCC1(CC2=CC=C(C=C2)Cl)N)C3=NC=NC4=C3C=CN4
How it was run: as §1

IRAK-1-4 Inhibitor I = compound: C1COCCN1CCN2C3=CC=CC=C3N=C2NC(=O)C4=CC(=CC=C4)[N+](=O)[O-] [IRAK-1-4 Inhibitor I]
How it was run: as §1

[10] = compound: CC(=O)c1cnc2ccc(-c3cc(Cl)c(O)c(Cl)c3)nc2c1N[C@H]1CC[C@H](CN(C)C)CC1
How it was run: as §1

ralimetinib = compound: CC(C)(C)Cn1c(N)nc2ccc(-c3[nH]c(C(C)(C)C)nc3-c3ccc(F)cc3)nc21 [ralimetinib]
How it was run: as §1

[11] = compound: CC(C)(O)CC(=O)NCCn1ccc2ncnc(Nc3ccc(Oc4cccc(C(F)(F)F)c4)c(Cl)c3)c21
How it was run: as §1

[12] = compound: CC(C)C1=C2N=C(C=C(N2N=C1)NCC3=CC=CC=C3)NCCCCCCN
How it was run: as §1

[13] = compound: CC1=C(C(CC(=O)N1)C2=CC=C(C=C2)C(F)(F)F)C(=O)NC3=C(C=C4C(=C3)C=NN4)F
How it was run: as §1

[14] = compound: CC1=C(C2=C(C=C1)C(=O)C3=CC=CC=C3N2CCCN)C
How it was run: as §1

[15] = compound: CC1=C(C=C(C=C1)NC(=O)C2=CC(=CC=C2)N(C)C)NC(=O)C3=CC=C(C=C3)O
How it was run: as §1

[16] = compound: CC1=CC=C(C=C1)SC2=C3C=C(SC3=CN=C2)C(=O)N
How it was run: as §1

Measured: log2 fold change

TMEM104 (UniProt Q8NE00)
inactive: [1] -0.422 | [2] 0.11 | [3] 0.014 | [4] 0.108 | ibrutinib 0.071 | [5] 0.064

TM7SF2 (UniProt O76062)
inactive: [5] -0.138

TMEM184C (UniProt Q9NVA4)
inactive: erlotinib 0.006 | [6] 0.059 | [3] 0.172 | [7] -0.05 | [8] 0.007 | [9] 0.057 | IRAK-1-4 Inhibitor I 0.021 | ibrutinib -0.052 | [10] 0.048 | ralimetinib 0.015 | [11] 0.033 | [12] -0.031 | [13] -0.055 | [14] -0.04 | [5] 0.063 | [15] -0.037 | [16] 0.07

TMEM102 (UniProt Q8N9M5)
inactive: [1] 0.067 | [2] -0.302 | [7] -0.086 | [4] 0.032 | [8] -0.016 | [9] -0.073 | IRAK-1-4 Inhibitor I 0.101 | ralimetinib 0.145 | [11] -0.062 | [13] -0.081 | [5] 0.125 | [15] 0.058

TGFBR1 isoform 2 (UniProt P36897)
inactive: erlotinib 0.042 | [6] -0.069 | [8] 0.14 | [9] -0.102 | [12] -0.032 | [14] -0.043

THAP7 (UniProt Q9BT49)
inactive: [13] -0.062

THBS1 (UniProt P07996)
inactive: [1] -0.069 | [2] 0.018 | [4] -0.002 | [14] -0.078 | [5] 0.016

THAP3 (UniProt Q8WTV1)
inactive: erlotinib -0.051 | [6] 0.026 | [7] -0.08 | IRAK-1-4 Inhibitor I -0.017 | ralimetinib -0.01 | [11] 0.099 | [12] -0.084 | [13] 0.039 | [5] 0.046 | [15] 0.069

THAP9 (UniProt Q9H5L6)
inactive: [1] 0.019 | [2] -0.015 | [3] 0.01 | [7] 0.028 | [4] -0.042 | [8] -0.092 | [9] 0.098 | IRAK-1-4 Inhibitor I 0.145 | ibrutinib 0.038 | [10] -0.061 | ralimetinib -0.168 | [11] -0.332 | [14] -0.199 | [5] 0.234 | [15] 0.017 | [16] -0.087

TMEM183B (UniProt Q1AE95)
inactive: [1] 0.213 | [2] 0.065 | [7] 0.076 | [4] -0.221 | IRAK-1-4 Inhibitor I -0.033 | ralimetinib -0.18 | [11] 0.143 | [15] -0.25

TMEM101 (UniProt Q96IK0)
inactive: erlotinib -0.065 | [6] -0.011 | [3] 0.094 | [7] 0.004 | [8] -0.069 | [9] 0.123 | IRAK-1-4 Inhibitor I -0.012 | ibrutinib -0.07 | [10] 0.102 | ralimetinib 0.034 | [11] -0.139 | [12] -0.042 | [13] 0.022 | [14] -0.011 | [5] 0.108 | [15] -0.02 | [16] -0.073

TMEM175 (UniProt Q9BSA9)
inactive: erlotinib 0.083 | [6] -0.098 | [3] 0.017 | [7] -0.062 | IRAK-1-4 Inhibitor I 0.136 | ibrutinib 0.082 | ralimetinib -0.099 | [11] -0.002 | [12] 0.232 | [5] 0.113 | [15] 0.064

THOC2 (UniProt H0Y7U4)
inactive: [3] 0.038 | [7] 0.129 | IRAK-1-4 Inhibitor I 0.011 | ibrutinib 0.192 | [10] -0.03 | ralimetinib -0.018 | [11] -0.048 | [14] 0.045 | [5] -0.081 | [15] -0.132 | [16] -0.061

TMEM184B (UniProt Q9Y519)
inactive: [7] 0.021 | IRAK-1-4 Inhibitor I -0.009 | ralimetinib 0.046 | [11] -0.034 | [14] -0.058 | [5] -0.039 | [15] 0.023

TGFBR2 isoform 2 (UniProt P37173)
inactive: erlotinib 0.101 | [6] -0.195 | [7] 0.026 | [8] -0.185 | [9] -0.06 | IRAK-1-4 Inhibitor I 0.095 | ralimetinib -0.163 | [11] -0.4 | [12] 0.075 | [14] 0.057 | [15] -0.466

TICRR (UniProt Q7Z2Z1)
inactive: [14] 0.049

TMEM106C (UniProt Q9BVX2)
inactive: erlotinib -0.257 | [6] 0.052 | [3] 0.026 | [8] 0.039 | [9] 0.035 | ibrutinib -0.057 | [12] -0.018

TMEM154 (UniProt Q6P9G4)
inactive: [7] 0.01 | [8] -0.096 | [9] 0.108 | IRAK-1-4 Inhibitor I 0.019 | ralimetinib -0.079 | [11] 0.164 | [14] 0.048 | [5] -0.052 | [15] 0.172

TMEM159 isoform 2 (UniProt Q96B96)
inactive: erlotinib -0.036 | [6] -0.083 | [3] -0.042 | [7] -0.072 | [8] -0.134 | [9] -0.143 | IRAK-1-4 Inhibitor I 0.022 | ibrutinib -0.07 | [10] -0.01 | ralimetinib 0.074 | [11] -0.017 | [12] 0.256 | [13] -0.03 | [14] 0.025 | [5] -0.002 | [15] -0.033 | [16] -0.074

TGM2 (UniProt A2A299)
inactive: [10] 0.06 | [13] -0.13 | [16] 0.037

TM2D3 (UniProt Q9BRN9)
inactive: erlotinib 0.104 | [6] -0.083 | [3] -0.068 | [7] 0.205 | [8] 0.153 | [9] 0.088 | IRAK-1-4 Inhibitor I 0.148 | ibrutinib 0.02 | ralimetinib -0.14 | [11] -0.157 | [12] -0.201 | [15] 0.07

TKTL1 (UniProt P51854)
inactive: [8] -0.053 | [9] 0.049 | [14] 0.131

TMCC1 (UniProt O94876)
inactive: [1] 0.002 | [2] 0.101 | [4] -0.062 | [8] 0.176 | [9] -0.05 | [14] 0.155

TLE3 (UniProt H0YL70)
inactive: [14] 0.004

TMEM143 (UniProt Q96AN5)
inactive: [1] 0.066 | [2] -0.059 | [7] 0.083 | [4] 0.051 | [8] 0.04 | [9] 0.437 | IRAK-1-4 Inhibitor I 0.33 | [10] -0.081 | ralimetinib -0.199 | [11] 0.037 | [13] -0.112 | [14] 0.034 | [5] 0.014 | [15] 0.158 | [16] -0.084

Two records drawn at random from those above, as already listed:
TMEM143 (UniProt Q96AN5)
inactive: [1] 0.066 | [2] -0.059 | [7] 0.083 | [4] 0.051 | [8] 0.04 | [9] 0.437 | IRAK-1-4 Inhibitor I 0.33 | [10] -0.081 | ralimetinib -0.199 | [11] 0.037 | [13] -0.112 | [14] 0.034 | [5] 0.014 | [15] 0.158 | [16] -0.084

TM2D3 (UniProt Q9BRN9)
inactive: erlotinib 0.104 | [6] -0.083 | [3] -0.068 | [7] 0.205 | [8] 0.153 | [9] 0.088 | IRAK-1-4 Inhibitor I 0.148 | ibrutinib 0.02 | ralimetinib -0.14 | [11] -0.157 | [12] -0.201 | [15] 0.07

(next part)

TLE3 isoform 5 (UniProt Q04726)
inactive: erlotinib 0.036 | [6] -0.068 | [3] 0.237 | [7] 0.06 | [8] -0.068 | [9] 0.01 | IRAK-1-4 Inhibitor I -0.021 | ibrutinib 0.045 | [10] -0.022 | ralimetinib -0.027 | [11] -0.077 | [12] -0.061 | [13] 0.138 | [14] -0.053 | [5] 0.093 | [15] 0.018 | [16] -0.035

TMEM134 (UniProt Q9H6X4)
inactive: erlotinib 0.067 | [6] -0.042 | [7] 0.083 | IRAK-1-4 Inhibitor I -0.064 | [10] 0.051 | ralimetinib -0.019 | [11] -0.086 | [12] 0.036 | [14] -0.038 | [5] 0.068 | [15] 0.055 | [16] 0.097

TMED3 (UniProt Q9Y3Q3)
inactive: erlotinib 0.05 | [6] -0.09 | [3] -0.011 | [7] -0.069 | IRAK-1-4 Inhibitor I 0.113 | ibrutinib -0.062 | [10] 0.03 | ralimetinib 0.132 | [11] -0.047 | [12] -0.025 | [5] 0.027 | [15] -0.053 | [16] 0.12

TGIF1 (UniProt Q15583)
inactive: erlotinib 0.001 | [6] 0.116 | [12] 0.018 | [5] -0.063

TLNRD1 (UniProt Q9H1K6)
inactive: [3] -0.492 | [7] 0.072 | IRAK-1-4 Inhibitor I 0.022 | ibrutinib 0.181 | [10] -0.049 | ralimetinib -0.031 | [11] 0.058 | [14] -0.182 | [5] 0.159 | [15] -0.011 | [16] 0.227

TMEM129
inactive: erlotinib 0.05 | [6] -0.018 | [12] 0.089

TMC7 (UniProt Q7Z402)
inactive: erlotinib -0.425 | [6] 0.408 | [12] -0.116

THAP5 (UniProt Q7Z6K1)
inactive: [14] 0.031

TMCO3 (UniProt Q6UWJ1)
inactive: [1] -0.078 | [2] -0.105 | [3] -0.099 | [4] 0.056 | [8] -0.052 | [9] 0.087 | ibrutinib 0.125 | [5] -0.002

TIFA (UniProt Q96CG3)
inactive: erlotinib 0.037 | [6] 0.004 | [7] 0.106 | [8] -0.028 | [9] 0.055 | IRAK-1-4 Inhibitor I -0.058 | ralimetinib -0.132 | [11] -0.134 | [12] -0.035 | [5] -0.073 | [15] 0.134

TICAM1 (UniProt Q8IUC6)
inactive: erlotinib 0.172 | [6] -0.031 | [3] -0.137 | [7] -0.014 | IRAK-1-4 Inhibitor I 0 | ibrutinib 0.028 | [10] -0.027 | ralimetinib 0.076 | [11] -0.049 | [12] -0.07 | [13] -0.023 | [14] 0.015 | [5] 0.055 | [15] 0.006 | [16] 0.042

— the supplement of paper PMC10849652
